Experimental findings from article PMC2093940 are described below.

The exact form of at least one protein or probe is not confirmed. Results from cells or extracts need not show a direct contact.

This series addresses PITX3 wild-type (Homo sapiens) (UniProt O75364). In words: EMSA with supershift. To be noted: poly[d(I-C)], several complexes, supershifted by anti-PITX3 antibody; LightShift kit binding buffer (composition and pH not given), 50 ng/ul poly[d(I-C)], 20 fmol probe, RT 15 min (30 min with antibody), 5% PAGE in 1x TBE; protein in a lysate after overexpression; protein details: C-terminal c-Myc and His (pcDNA3.1 MycHisC); label: 3' biotin. Background: In EMSA bound probe runs differently from free probe, usually more slowly.

With “GATCCTAATCCCGTCGCGTCGTAATCCGGATC (double strand) [bicoid probe (Bcd 2x 10n)]”, the binding result is recorded as “binds”.
